Results reported in PMC5522314.
Results are given in words; binding and its absence hold for the method and conditions named. In cells and extracts the contact can be indirect. Some results given as binding are weak or reduced against the parent protein; the word gives no strength. For some assays here: Tags and fused reporters may be left off the sequences shown.

T1: Caveolin-1 (mouse (endogenous in primary alveolar macrophages of BALB/c mice)) (UniProt P49817)
T1 sequence: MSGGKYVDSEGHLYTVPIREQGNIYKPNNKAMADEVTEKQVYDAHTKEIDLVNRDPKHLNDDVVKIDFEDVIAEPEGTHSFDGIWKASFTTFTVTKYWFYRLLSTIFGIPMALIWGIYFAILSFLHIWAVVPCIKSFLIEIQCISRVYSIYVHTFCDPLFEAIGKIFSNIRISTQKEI

T2: Heme oxygenase-1 (mouse (endogenous in primary alveolar macrophages of BALB/c mice)) (UniProt P14901)
T2 sequence: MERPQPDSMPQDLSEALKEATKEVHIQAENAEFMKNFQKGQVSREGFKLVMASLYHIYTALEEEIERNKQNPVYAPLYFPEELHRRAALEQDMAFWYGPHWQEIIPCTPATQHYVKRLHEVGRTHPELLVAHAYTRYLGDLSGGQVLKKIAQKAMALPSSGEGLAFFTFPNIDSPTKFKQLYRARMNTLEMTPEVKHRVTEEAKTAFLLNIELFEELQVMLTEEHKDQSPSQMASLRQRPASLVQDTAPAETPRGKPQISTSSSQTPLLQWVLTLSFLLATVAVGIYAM

B1: Heme oxygenase-1 (enzyme, UniProt P14901 1-289)
chain: T2 sequence

Experiments:
[1] = target: T1, Caveolin-1 (mouse (endogenous in primary alveolar macrophages of BALB/c mice)); experiment: co-IP; RIPA lysates of primary mouse alveolar macrophages, immunoprecipitated with anti-Cav-1 (protein A/G magnetic beads, 4 °C), immunoblotted with anti-HO-1; cells pretreated for 6 h with or without CSD peptides, then LPS and hemin for 16 h
[2] = target: T2, Heme oxygenase-1 (mouse (endogenous in primary alveolar macrophages of BALB/c mice)); experiment: co-IP; the same co-IP (anti-Cav-1, blot anti-HO-1) read for the synthetic AP-CSD peptide given to the living alveolar macrophages for 6 h before LPS and hemin; loss of the HO-1/Cav-1 co-precipitate is the read-out; only the binder purified

Row | Binder | binding [1] | binding [2]
1 | B1 | binds | 
2 | RQIKIWFQNRRMKWKKDGIWKASFTTFTVTKYWFYR |  | binds
